Measurements taken from EP4269424A1, “NOVEL ANTIVIRAL COMPOUNDS AND USE THEREOF” (priority 2022, dated 2023).
Not every detail of the peptide structures is certain; ends, links or a residue may be inferred. At least one compound was matched to its structure with a doubt left. No end group written: not given here.

System: SARS-CoV-2
Type: cell-based

Q: CC[C@H](C)[C@H](NC(=O)CNC(=O)[C@H](CO)NC(=O)[C@H](C)NC(=O)[C@H](CC(C)C)NC(=O)[C@H](C)NC(=O)[C@H](CC(=O)O)NC(=O)[C@@H](NC(=O)[C@H](CCC(=O)O)NC(=O)[C@H](Cc1c[nH]cn1)NC(=O)[C@H](CCC(=O)O)NC(=O)[C@H](CC(=O)O)NC(=O)[C@H](Cc1ccccc1)NC(=O)[C@H](CC(=O)O)NC(=O)CNC(=O)[C@H](Cc1ccccc1)NC(=O)[C@@H](NC(=O)[C@H](CC(C)C)NC(=O)[C@H](CCCNC(=N)N)NC(=O)[C@H](CCCNC(=N)N)NC(=O)[C@H](CCCNC(=N)N)NC(=O)[C@H](CCC(N)=O)NC(=O)[C@H](CCCNC(=N)N)NC(=O)[C@H](CCCNC(=N)N)NC(=O)[C@H](CCCCN)NC(=O)[C@H](CCCCN)NC(=O)[C@H](CCCNC(=N)N)NC(=O)CNC(=O)[C@@H](N)Cc1ccc(O)cc1)[C@@H](C)O)C(C)C)C(=O)NCC(=O)N[C@@H](C)C(=O)NCC(=O)N[C@@H](CC(=O)O)C(=O)N[C@@H](C)C(=O)N[C@@H](CC(=O)O)C(=O)N[C@@H](CC(=O)O)C(=O)O [G3BPi Cmut] was tested. Which Antiviral activity did it give?
A: Yes - reduced

Q: Which Antiviral activity does the source give for CC[C@H](C)[C@H](NC(=O)CNC(=O)[C@H](CO)NC(=O)[C@H](C)NC(=O)[C@H](CC(C)C)NC(=O)[C@H](C)NC(=O)[C@H](CC(=O)O)NC(=O)[C@@H](NC(=O)[C@H](CCC(=O)O)NC(=O)[C@H](Cc1c[nH]cn1)NC(=O)[C@H](CCC(=O)O)NC(=O)[C@H](CC(=O)O)NC(=O)[C@H](C)NC(=O)[C@H](CC(=O)O)NC(=O)CNC(=O)[C@H](C)NC(=O)CNC(=O)[C@H](CC(C)C)NC(=O)[C@H](CCCNC(=N)N)NC(=O)[C@H](CCCNC(=N)N)NC(=O)[C@H](CCCNC(=N)N)NC(=O)[C@H](CCC(N)=O)NC(=O)[C@H](CCCNC(=N)N)NC(=O)[C@H](CCCNC(=N)N)NC(=O)[C@H](CCCCN)NC(=O)[C@H](CCCCN)NC(=O)[C@H](CCCNC(=N)N)NC(=O)CNC(=O)[C@@H](N)Cc1ccc(O)cc1)C(C)C)C(=O)N[C@H](C(=O)N[C@@H](Cc1ccccc1)C(=O)NCC(=O)N[C@@H](CC(=O)O)C(=O)N[C@@H](Cc1ccccc1)C(=O)N[C@@H](CC(=O)O)C(=O)N[C@@H](CC(=O)O)C(=O)O)[C@@H](C)O [G3BPi Nmut] here?
A: No

Q: For CC[C@H](C)[C@H](NC(=O)CNC(=O)[C@H](CO)NC(=O)[C@H](C)NC(=O)[C@H](CC(C)C)NC(=O)[C@H](C)NC(=O)[C@H](CC(=O)O)NC(=O)[C@@H](NC(=O)[C@H](CCC(=O)O)NC(=O)[C@H](Cc1c[nH]cn1)NC(=O)[C@H](CCC(=O)O)NC(=O)[C@H](CC(=O)O)NC(=O)[C@H](Cc1ccccc1)NC(=O)[C@H](CC(=O)O)NC(=O)CNC(=O)[C@H](Cc1ccccc1)NC(=O)[C@@H](NC(=O)[C@H](CC(C)C)NC(=O)[C@H](CCCNC(=N)N)NC(=O)[C@H](CCCNC(=N)N)NC(=O)[C@H](CCCNC(=N)N)NC(=O)[C@H](CCC(N)=O)NC(=O)[C@H](CCCNC(=N)N)NC(=O)[C@H](CCCNC(=N)N)NC(=O)[C@H](CCCCN)NC(=O)[C@H](CCCCN)NC(=O)[C@H](CCCNC(=N)N)NC(=O)CNC(=O)[C@@H](N)Cc1ccc(O)cc1)[C@@H](C)O)C(C)C)C(=O)N[C@H](C(=O)N[C@@H](Cc1ccccc1)C(=O)NCC(=O)N[C@@H](CC(=O)O)C(=O)N[C@@H](Cc1ccccc1)C(=O)N[C@@H](CC(=O)O)C(=O)N[C@@H](CC(=O)O)C(=O)O)[C@@H](C)O [G3BPi WT], which “Percentage SARS-CoV-2 infected cells” value is on record?
A: inhibited viral infection in a dosedependent manner

Q: Which “Percentage SARS-CoV-2 infected cells” value does the source give for CC[C@H](C)[C@H](NC(=O)CNC(=O)[C@H](CO)NC(=O)[C@H](C)NC(=O)[C@H](CC(C)C)NC(=O)[C@H](C)NC(=O)[C@H](CC(=O)O)NC(=O)[C@@H](NC(=O)[C@H](CCC(=O)O)NC(=O)[C@H](Cc1c[nH]cn1)NC(=O)[C@H](CCC(=O)O)NC(=O)[C@H](CC(=O)O)NC(=O)[C@H](C)NC(=O)[C@H](CC(=O)O)NC(=O)CNC(=O)[C@H](C)NC(=O)CNC(=O)[C@H](CC(C)C)NC(=O)[C@H](CCCNC(=N)N)NC(=O)[C@H](CCCNC(=N)N)NC(=O)[C@H](CCCNC(=N)N)NC(=O)[C@H](CCC(N)=O)NC(=O)[C@H](CCCNC(=N)N)NC(=O)[C@H](CCCNC(=N)N)NC(=O)[C@H](CCCCN)NC(=O)[C@H](CCCCN)NC(=O)[C@H](CCCNC(=N)N)NC(=O)CNC(=O)[C@@H](N)Cc1ccc(O)cc1)C(C)C)C(=O)NCC(=O)N[C@@H](C)C(=O)NCC(=O)N[C@@H](CC(=O)O)C(=O)N[C@@H](C)C(=O)N[C@@H](CC(=O)O)C(=O)N[C@@H](CC(=O)O)C(=O)O [G3BPi ctrl, reference compound] here?
A: failed to inhibit viral infection

Q: “YGRKKRRQRRRLTFGDFDE [G3BPi one, YGRKKRRQRRRLTFGDFDE]” was tested. Which Antiviral activity did it give?
A: No
